Earlier results, collected in PMC7884382, “A Phase 1 study of RO6870810, a novel bromodomain and extra-terminal protein inhibitor, in patients with NUT carcinoma, other solid tumours, or diffuse large B-cell lymphoma” (British Journal of Cancer, 2020).

Set-up: method as in PMID 29733771, PMID 32328561
Conditions: cited from earlier work

In the case of `CCNC(=O)C[C@@H]1N=C(c2ccc(Cl)cc2)c2cc(OC)ccc2-n2c(C)nnc21` [molibresib], the Half-life is given as 3 to 7 h.
